Test system: PH5CH8 liver cells
Assay: High-throughput hepatic de novo lipogenesis (DNL) assay, high content imaging of steatotic phenotype
Format: cell-based, human

| Compound | shape of concentration curve in DNL assay |
| --- | --- |
| CC(C)(C)c1ccc(O)c(C(=O)Nc2ccc(C(=O)O)cc2Cl)c1 [Compound 500200, 4-[(5-tert-butyl-2-hydroxybenzene)amido]-3-chlorobenzoic acid] | inverse concentration curves |
| CC(C)(C)c1ccc(O)c(C(=O)Nc2ccc(C(=O)O)cc2C(F)(F)F)c1 [Compound 500873, 4-[(5-tert-butyl-2-hydroxy)amido]-3-(trifluoromethyl)benzoic acid] | inverse concentration curves |

Source: article PMC6201879, “N-substituted phenylbenzamides of the niclosamide chemotype attenuate obesity related changes in high fat diet fed mice” (PLoS ONE, 2018)
